Protein sequences can lack the tags named with them.

The source of these data is paper PMC7036364.

The data set deals with T1, GST-StMbp1 (Setosphaeria turcica 01-23) (UniProt R0KRN6).
T1 sequence (looked up): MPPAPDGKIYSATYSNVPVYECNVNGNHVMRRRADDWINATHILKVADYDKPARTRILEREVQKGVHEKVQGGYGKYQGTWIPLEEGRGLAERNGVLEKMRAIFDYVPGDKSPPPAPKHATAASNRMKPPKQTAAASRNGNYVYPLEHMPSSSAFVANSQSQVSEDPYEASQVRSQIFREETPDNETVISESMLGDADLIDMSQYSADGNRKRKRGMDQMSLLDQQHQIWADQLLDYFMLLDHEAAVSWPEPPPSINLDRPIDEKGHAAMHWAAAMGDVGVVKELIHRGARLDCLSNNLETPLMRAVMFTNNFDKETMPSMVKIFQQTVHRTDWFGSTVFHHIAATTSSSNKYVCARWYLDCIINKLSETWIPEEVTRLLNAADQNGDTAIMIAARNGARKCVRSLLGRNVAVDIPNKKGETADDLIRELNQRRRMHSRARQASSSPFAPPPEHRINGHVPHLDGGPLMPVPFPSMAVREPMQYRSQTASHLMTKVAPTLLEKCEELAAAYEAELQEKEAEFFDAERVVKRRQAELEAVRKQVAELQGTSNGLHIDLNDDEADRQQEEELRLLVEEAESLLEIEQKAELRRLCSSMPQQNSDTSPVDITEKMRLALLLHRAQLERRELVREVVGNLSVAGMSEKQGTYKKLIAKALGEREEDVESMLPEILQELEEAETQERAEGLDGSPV
The data set is described as follows: EMSA. The following applies: 0.5 ug DNA in 20 ul, 1% agarose, increasing GST-StMbp1; 50 mM Tris-HCl pH 7.8, 50 mM NaCl, 1 mM EDTA, 0.05% NP-40, 2.5% glycerol, 25 C, 15 min; 1% agarose gel; recombinant protein; residues 1-691; protein details: N-terminal GST (pGEX-6P-3); label: none (ethidium bromide stain). On the technique in general: Mobility shift assays separate free from complexed probe on a gel.

On to “AAGATGCTGTAATTGATAGCAAAACACACGGACGCGACGTCTATCCACCCCGGCTTATGGGAGGGGATCCGAGCCACTAGGCCCGAAGTTGAGACAGCGCCTTCGCTTTCCAGGTCCCCACGTCTCATGTTTCCTATCACCCGCAACGCATTGGCTGCATTTCTCAGCCGCTGGGCTCCACGTCTAGCGCGCCATCTATCAATAGGCATAGGAGCTTACTCGGACACACAGCCGGCATCTGCACGCCATCAACCCTCGCAATCATGGCTGGACTATCCAGGAAGGGAAGTGGTCCGCGGTCCACACTTGAGCTCACGTCAATATGCCTCTGCAGTACACTCGCTCCGCAATACATGGATTGTAACAGATCCGGCACGCACTGTGCTTGTCATCGCGCGATCCACGCCCTGACCACCTTCTTGACATCTCACGCCTATCATTGCCGCCTGGACGCATACATATACCAGCACCTCCAAGCCCTAAACTTTTCATTATCCCAT (double strand) [StPKS promoter fragment (-738 to -238)]”, for which the binding result is “binds”.
